{"sequences": {"note": "Protein sequences, listed by entry. Tags and fused reporters are not part of them.", "UniProt Q24572": "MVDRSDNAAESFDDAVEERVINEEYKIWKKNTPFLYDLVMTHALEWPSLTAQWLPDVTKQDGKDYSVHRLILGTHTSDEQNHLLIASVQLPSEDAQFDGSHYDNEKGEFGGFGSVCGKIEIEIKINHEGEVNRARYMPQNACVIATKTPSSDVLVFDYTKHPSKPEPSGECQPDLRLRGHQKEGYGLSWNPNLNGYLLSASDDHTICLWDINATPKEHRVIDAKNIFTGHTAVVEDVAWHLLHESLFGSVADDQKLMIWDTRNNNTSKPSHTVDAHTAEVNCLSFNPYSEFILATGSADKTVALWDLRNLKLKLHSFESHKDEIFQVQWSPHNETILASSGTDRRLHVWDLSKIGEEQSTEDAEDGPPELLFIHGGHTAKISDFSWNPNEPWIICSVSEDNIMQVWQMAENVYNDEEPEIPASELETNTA"}, "source": "paper PMC4172637", "key": {"FLAG-CP190 (Drosophila)": {"target": "T1, FLAG-CP190 (Drosophila) (UniProt Q24478)", "T1 sequence": "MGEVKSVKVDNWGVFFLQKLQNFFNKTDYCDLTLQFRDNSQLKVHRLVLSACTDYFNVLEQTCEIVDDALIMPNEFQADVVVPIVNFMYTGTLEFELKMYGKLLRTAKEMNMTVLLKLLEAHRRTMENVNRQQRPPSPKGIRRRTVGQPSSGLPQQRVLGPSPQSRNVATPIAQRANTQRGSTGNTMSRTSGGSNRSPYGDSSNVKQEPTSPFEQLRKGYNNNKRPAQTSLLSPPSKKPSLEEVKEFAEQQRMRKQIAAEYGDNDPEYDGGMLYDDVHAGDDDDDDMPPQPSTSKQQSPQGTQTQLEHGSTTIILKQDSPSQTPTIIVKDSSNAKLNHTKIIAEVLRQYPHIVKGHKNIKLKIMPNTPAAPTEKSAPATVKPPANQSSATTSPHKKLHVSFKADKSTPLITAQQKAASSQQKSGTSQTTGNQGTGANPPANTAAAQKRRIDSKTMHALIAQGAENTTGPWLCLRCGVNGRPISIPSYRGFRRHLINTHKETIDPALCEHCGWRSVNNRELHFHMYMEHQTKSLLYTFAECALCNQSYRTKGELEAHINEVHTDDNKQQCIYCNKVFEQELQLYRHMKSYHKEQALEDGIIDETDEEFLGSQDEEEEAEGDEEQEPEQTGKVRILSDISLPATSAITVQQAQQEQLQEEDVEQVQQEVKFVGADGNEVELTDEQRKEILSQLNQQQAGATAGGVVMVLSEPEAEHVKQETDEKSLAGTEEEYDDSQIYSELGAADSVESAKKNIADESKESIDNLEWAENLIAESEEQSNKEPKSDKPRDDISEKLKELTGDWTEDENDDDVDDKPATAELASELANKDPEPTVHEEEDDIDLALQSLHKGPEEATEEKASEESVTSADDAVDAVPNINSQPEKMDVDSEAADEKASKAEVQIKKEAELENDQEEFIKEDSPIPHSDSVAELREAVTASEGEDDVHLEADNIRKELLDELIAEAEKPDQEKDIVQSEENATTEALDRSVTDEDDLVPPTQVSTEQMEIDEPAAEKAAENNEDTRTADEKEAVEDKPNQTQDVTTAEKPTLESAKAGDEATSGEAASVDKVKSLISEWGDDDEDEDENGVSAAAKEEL", "assay": "affinity purification with mass spectrometry; FLAG-M2 immunopurification of FLAG-dCTCF or FLAG-CP190 from nuclear extract of stably transfected S2 cells; washes 20 mM Tris-HCl pH 7.5, 100 mM NaCl, 0.25% NP-40; TCA precipitation, SDS-PAGE, mass spectrometry"}, "FLAG-dCTCF (Drosophila)": {"target": "T2, FLAG-dCTCF (Drosophila) (UniProt Q9VS55)", "T2 sequence": "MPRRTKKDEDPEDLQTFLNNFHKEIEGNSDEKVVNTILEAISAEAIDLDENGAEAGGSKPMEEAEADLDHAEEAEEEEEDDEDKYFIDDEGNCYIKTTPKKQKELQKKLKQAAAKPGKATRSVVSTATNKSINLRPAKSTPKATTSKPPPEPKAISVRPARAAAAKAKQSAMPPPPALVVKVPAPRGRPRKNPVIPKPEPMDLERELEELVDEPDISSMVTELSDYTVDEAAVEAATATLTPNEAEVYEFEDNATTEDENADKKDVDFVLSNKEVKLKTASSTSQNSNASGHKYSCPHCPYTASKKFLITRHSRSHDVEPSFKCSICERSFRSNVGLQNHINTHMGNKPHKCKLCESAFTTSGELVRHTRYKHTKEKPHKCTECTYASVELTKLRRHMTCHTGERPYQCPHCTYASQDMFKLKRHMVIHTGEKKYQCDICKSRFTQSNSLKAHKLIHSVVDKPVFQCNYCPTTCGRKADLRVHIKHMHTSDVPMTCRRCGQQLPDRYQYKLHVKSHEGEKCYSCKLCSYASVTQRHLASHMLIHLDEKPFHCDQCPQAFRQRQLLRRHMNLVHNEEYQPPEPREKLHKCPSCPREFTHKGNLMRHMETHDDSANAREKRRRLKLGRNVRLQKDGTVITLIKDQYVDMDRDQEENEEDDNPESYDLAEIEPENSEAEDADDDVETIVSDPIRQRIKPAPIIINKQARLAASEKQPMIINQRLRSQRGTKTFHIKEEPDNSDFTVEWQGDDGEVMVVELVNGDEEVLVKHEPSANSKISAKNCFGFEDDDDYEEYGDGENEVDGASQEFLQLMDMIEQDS", "assay": "affinity purification with mass spectrometry; FLAG-M2 immunopurification of FLAG-dCTCF or FLAG-CP190 from nuclear extract of stably transfected S2 cells; washes 20 mM Tris-HCl pH 7.5, 100 mM NaCl, 0.25% NP-40; TCA precipitation, SDS-PAGE, mass spectrometry"}}, "note": "No constants are given. Whether binding was seen depends on the method and setting. In cells and extracts the contact can be indirect. These calls come from enrichment with a bait or labelling near it, and not all partners need be listed. Sequences can lack the tags named with a protein.", "data": [{"substance": "CAF-1/p55 (from UniProt Q24572 1-430)", "values": [{"measurement": "binding", "setting": "FLAG-CP190 (Drosophila)", "value": "binds"}, {"measurement": "binding", "setting": "FLAG-dCTCF (Drosophila)", "value": "binds"}]}]}
